Measurements taken from PubChem BioAssay AID330 (DTP/NCI, 2004).
The list is a part of this screen's results and no random one: it is rich in T/C values a quarter to a half above the control, in often repeated tests (any T/C) and in doses without a T/C. Further doses and runs are listed elsewhere. T/C: endpoint of the treated group in % of that of the vehicle group. Some doses have a count of surviving animals in place of a T/C: the source holds a T/C of zero for them, seemingly a mark for toxic or unscored doses. Some doses without a T/C left all or most animals alive at the check, yet need not have been tolerated: survival well below the control is almost never listed, so the zero probably covers shortened survival too. Counts of survivors are from the toxicity check (mostly the fifth day) where no day follows; animals may have died later. Schedule codes are those of the source, taken here to give the interval after Q, in days (D) or hours (H), and the number of doses after X. Some doses were run more than once; their values stand side by side, smallest first. For survival time, this PubChem deposit counts one and a half times the control or more as active, and values a quarter to a half above the control carry no call in these data; other NCI protocols may use other cut-offs. Some T/C values carry the count of animals alive at the toxicity check (mostly the fifth day); where none is given, no animal had died by that day.

Tested on: P388 leukemia ip, CD2F1 mice, survival T/C
Experiment: NCI In Vivo Anticancer Drug Screen. Data for tumor model P388 Leukemia (intraperitoneal) in CD2F1 (CDF1) mice
Settings: T/C endpoint: median survival time, higher T/C = longer survival
[1] = dose: 12.5 mg/kg/injection, schedule: Q01DX009 (ip), vehicle: saline with Tween-80
[2] = dose: 240.0 mg/kg/injection, schedule: Q01DX005 (ip), vehicle: Klucel (hydroxypropylcellulose) (HPC)
[3] = dose: 240.0 mg/kg/injection, schedule: Q01DX005 (ip), vehicle: saline with Tween-80
[4] = dose: 200.0 mg/kg/injection, schedule: Q01DX009 (ip), vehicle: Klucel (hydroxypropylcellulose) (HPC)
[5] = dose: 100.0 mg/kg/injection, schedule: Q01DX009 (ip), vehicle: saline
[6] = dose: 200.0 mg/kg/injection, schedule: Q01DX009 (ip), vehicle: saline
[7] = dose: 200.0 mg/kg/injection, schedule: Q01DX005 (ip), vehicle: saline
[8] = dose: 200.0 mg/kg/injection, schedule: Q01DX005 (ip), vehicle: saline with Tween-80

Clc1ccc(C#Cc2ccc(Cl)cc2)cc1
survivor count [1]: 4 of 6

COc1ccc2c(c1)CCC(Cc1ccc(Cl)cc1)C2c1ccc(OCCN2CCCC2)cc1 (stereo not drawn)
survivor count (dose: 100.0 mg/kg/injection, schedule: Q01DX005 (ip), vehicle: suspension in saline): 1 of 6
survivor count (dose: 200.0 mg/kg/injection, schedule: Q01DX005 (ip), vehicle: suspension in saline): 0 of 6

Oc1cc2c(cc1C(c1ccc(Cl)cc1)N1CCN(C(c3ccc(Cl)cc3)c3cc4c(cc3O)OCO4)CC1)OCO2 (stereo not drawn)
survivor count [2]: 6 of 6

COc1ccccc1C(Nc1nncs1)Nc1nncs1
T/C [3]: 126 % of control

COC1C(OC(N)=O)C(O)C(Oc2ccc3c(O)c(NC(=O)c4ccc(O)c(CC=C(C)C)c4)c(=O)oc3c2C)OC1(C)C (stereo not drawn)
survivor count (dose: 400.0 mg/kg/injection, schedule: Q01DX009 (ip), vehicle: Klucel (hydroxypropylcellulose) (HPC)): 0 of 6

CCOC(=O)C(CCc1ccc(N(CCCl)CCCl)cc1)(NC(C)=O)C(=O)OCC
T/C (dose: 100.0 mg/kg/injection, schedule: Q01DX009 (ip), vehicle: Klucel (hydroxypropylcellulose) (HPC)): 126 % of control
survivor count [4]: 6 of 6

CNC(=O)OCc1c(COC(=O)NC)c(-c2ccc(C(C)(C)C)cc2)n(C)c1C
T/C (dose: 3.12 mg/kg/injection, schedule: Q01DX009 (ip), vehicle: distilled water + Tween-80): 142 % of control
T/C (dose: 6.25 mg/kg/injection, schedule: Q01DX009 (ip), vehicle: distilled water + Tween-80): 148 % of control
T/C (dose: 12.5 mg/kg/injection, schedule: Q01DX009 (ip), vehicle: distilled water + Tween-80): 144 and 145 % of control [5 of 6 alive]
T/C (dose: 25.0 mg/kg/injection, schedule: Q01DX009 (ip), vehicle: distilled water + Tween-80): 145 % of control
survivor count (dose: 50.0 mg/kg/injection, schedule: Q01DX009 (ip), vehicle: distilled water + Tween-80): 1 of 6 and 6 of 6
survivor count (dose: 100.0 mg/kg/injection, schedule: Q01DX009 (ip), vehicle: distilled water + Tween-80): 1 of 6 and 2 of 6

N#CC12c3ccccc3C(c3ccccc31)C1C(=O)C=CC(=O)C12 (stereo not drawn)
survivor count [5]: 6 of 6
survivor count [6]: 6 of 6

O=NNc1cccnc1
T/C (dose: 25.0 mg/kg/injection, schedule: Q01DX009 (ip), vehicle: water): 126 and 132 % of control
T/C (dose: 50.0 mg/kg/injection, schedule: Q01DX009 (ip), vehicle: water): 145 and 148 % of control
survivor count (dose: 100.0 mg/kg/injection, schedule: Q01DX009 (ip), vehicle: water): 0 of 6
survivor count (dose: 200.0 mg/kg/injection, schedule: Q01DX009 (ip), vehicle: water): 0 of 6

COc1cc(OC)c(/C=C/c2c3ccccc3cc[n+]2C)c(OC)c1
T/C (dose: 0.78 mg/kg/injection, schedule: Q01DX009 (ip), vehicle: saline with Tween-80): 127 % of control
T/C (dose: 1.56 mg/kg/injection, schedule: Q01DX009 (ip), vehicle: saline with Tween-80): 131 and 134 % of control [5 of 6 alive]
survivor count (dose: 3.13 mg/kg/injection, schedule: Q01DX009 (ip), vehicle: saline with Tween-80): 2 of 6
survivor count (dose: 6.25 mg/kg/injection, schedule: Q01DX009 (ip), vehicle: saline with Tween-80): 0 of 6
survivor count [1]: 0 of 6
survivor count (dose: 25.0 mg/kg/injection, schedule: Q01DX009 (ip), vehicle: saline with Tween-80): 0 of 6

CCOC(=O)Nc1cc2c(c(N)n1)N=C(c1ccc3ccccc3c1)CN2
T/C (dose: 3.7 mg/kg/injection, schedule: Q01DX005 (ip), vehicle: saline with Tween-80): 136 % of control
survivor count (dose: 15.0 mg/kg/injection, schedule: Q01DX005 (ip), vehicle: saline with Tween-80): 4 of 5

CCN(CC)Cc1c(O)ccc(C(C)=O)c1O
survivor count [7]: 4 of 6

COc1cc(NC(=O)c2ccc(NC(=O)c3ccc(N)cc3)cc2)c(OC)cc1N=Nc1cc(C)c(N=Nc2cc(S(=O)(=O)O)c3cccc(S(=O)(=O)O)c3c2)cc1C
survivor count [8]: 5 of 6

S=C=Nc1ccc(-c2csc(Nc3ccnc4cc(Cl)ccc34)n2)cc1
survivor count [8]: 1 of 6

CCN(CC)Cc1c2c(O)c3c(O)c(C)c4c(c3c1O)C(=O)C(C)(O/C=C/C(OC)C(C)C(OC(C)=O)C(C)C(O)C(C)C(O)C(C)/C=C/C=C(\C)C(=O)N2)O4 (stereo not drawn)
T/C [4]: 125 % of control
survivor count (dose: 400.0 mg/kg/injection, schedule: Q01DX009 (ip), vehicle: saline with Tween-80): 6 of 6

Cc1cc2c(cc1C)NC1=C(N2)OC(c2ccccc2C)C1=O (stereo not drawn)
survivor count [2]: 4 of 6

c1coc(CNC2=NCCCCC2)c1
survivor count [5]: 0 of 6
survivor count [6]: 0 of 6
survivor count (dose: 400.0 mg/kg/injection, schedule: Q01DX009 (ip), vehicle: saline): 0 of 6

S=C1Cc2[nH]c(=S)sc(=S)c2C(=S)N1
survivor count (dose: 50.0 mg/kg/injection, schedule: Q01DX009 (ip), vehicle: saline with Tween-80): 6 of 6
survivor count (dose: 200.0 mg/kg/injection, schedule: Q01DX009 (ip), vehicle: saline with Tween-80): 6 of 6

CN1CCCCC1CCN1c2ccccc2Sc2ccc(S(C)=O)cc21 (stereo not drawn)
T/C (dose: 50.0 mg/kg/injection, schedule: Q01DX005 (ip), vehicle: saline): 100, 102, 107, 124 % of control
survivor count (dose: 100.0 mg/kg/injection, schedule: Q01DX005 (ip), vehicle: saline): 0 of 6
survivor count [7]: 0 of 6

CN(c1ccc(C2=NCCN2)cc1)S(=O)(=O)c1ccc(Cc2ccc(S(=O)(=O)N(C)c3ccc(C4=NCCN4)cc3)cc2)cc1
survivor count (dose: 25.0 mg/kg/injection, schedule: Q01DX005 (ip), vehicle: Klucel (hydroxypropylcellulose) (HPC)): 3 of 6
survivor count (dose: 50.0 mg/kg/injection, schedule: Q01DX005 (ip), vehicle: Klucel (hydroxypropylcellulose) (HPC)): 0 of 5
survivor count (dose: 100.0 mg/kg/injection, schedule: Q01DX005 (ip), vehicle: Klucel (hydroxypropylcellulose) (HPC)): 0 of 5
survivor count (dose: 200.0 mg/kg/injection, schedule: Q01DX005 (ip), vehicle: Klucel (hydroxypropylcellulose) (HPC)): 0 of 5

COC1/C=C/OC2(C)Oc3c(C)c(O)c4c(c3C2=O)C(N)=C(NC2CC2)C(=NC(=O)/C(C)=C\C=C\C(C)C(O)C(C)C(O)C(C)C(OC(C)=O)C1C)C4=O (stereo not drawn)
survivor count [4]: 2 of 6

NC(=S)c1ccccc1N=Cc1ccccn1
survivor count (dose: 400.0 mg/kg/injection, schedule: Q04DX003 (ip), vehicle: Klucel (hydroxypropylcellulose) (HPC)): 5 of 6

OC1CC2CCC(C1)N2c1ccccc1 (stereo not drawn)
survivor count [7]: 0 of 6

C/C=C(\C)N=NNc1ccccc1
survivor count (dose: 400.0 mg/kg/injection, schedule: Q04DX003 (ip), vehicle: saline + Tween-80 + alcohol): 6 of 6

COc1cc(C=C2C(=O)C=CC2=O)cc(OC)c1O
survivor count (dose: 25.0 mg/kg/injection, schedule: Q04DX002 (ip), vehicle: saline with Tween-80): 0 of 6
survivor count (dose: 50.0 mg/kg/injection, schedule: Q04DX002 (ip), vehicle: saline with Tween-80): 0 of 6
survivor count (dose: 100.0 mg/kg/injection, schedule: Q04DX002 (ip), vehicle: saline with Tween-80): 0 of 6

CCCCCCC1([N+](=O)[O-])CN(C)CC2CCCCN2C1 (stereo not drawn)
survivor count (dose: 400.0 mg/kg/injection, schedule: Q04DX002 (ip), vehicle: saline): 0 of 6

CC1(C)C2CCC([CH2][Hg][Cl])C1C2 (stereo not drawn)
T/C (dose: 8.33 mg/kg/injection, schedule: Q01DX009 (ip), vehicle: other): 127 % of control
survivor count [1]: 4 of 6
survivor count (dose: 18.7 mg/kg/injection, schedule: Q01DX009 (ip), vehicle: saline with Tween-80): 0 of 6
survivor count (dose: 18.75 mg/kg/injection, schedule: Q01DX009 (ip), vehicle: other): 2 of 6

Cc1csc2c3ccccc3cc(=O)n12
survivor count (dose: 200.0 mg/kg/injection, schedule: Q01DX001 (ip), vehicle: Klucel (hydroxypropylcellulose) (HPC)): 1 of 6
survivor count (dose: 400.0 mg/kg/injection, schedule: Q01DX001 (ip), vehicle: Klucel (hydroxypropylcellulose) (HPC)): 0 of 6

Oc1ccc2ncc(CBr)c(CBr)c2c1
survivor count (dose: 60.0 mg/kg/injection, schedule: Q01DX005 (ip), vehicle: saline with Tween-80): 3 of 6
survivor count (dose: 120.0 mg/kg/injection, schedule: Q01DX005 (ip), vehicle: saline with Tween-80): 0 of 6
survivor count [3]: 0 of 6
